Data: publication PMC12466757, “1,5-Diarylidene-4-Piperidones as Promising Antifungal Candidates Against Cryptococcus neoformans” (Antibiotics, 2025)

tested on: various human cells, i.e., A498, BEAS-2B, Caco-2, HaCaT, and HepG2; conditions: selectivity index = CC50 (human cells) divided by MIC (C. neoformans); min–max over the five cell lines

| SMILES | SI Min–Max |
| --- | --- |
| CCN1C/C(=C\c2ccc(OC)cc2)C(=O)/C(=C/c2ccc(OC)cc2)C1 [1a, 1-ethyl-3,5-bis((E)-4-methoxybenzylidene)piperidin-4-one] | 0.5–3.7 |
| CCN1C/C(=C\c2ccc(C)cc2)C(=O)/C(=C/c2ccc(C)cc2)C1 [1b, 1-ethyl-3,5-bis((E)-4-methylbenzylidene)piperidin-4-one] | 0.2–0.7 |
| CCN1C/C(=C\c2ccc(C#N)cc2)C(=O)/C(=C/c2ccc(C#N)cc2)C1 [1c] | 0.1–1.2 |
| CCN1C/C(=C\c2ccc([N+](=O)[O-])cc2)C(=O)/C(=C/c2ccc([N+](=O)[O-])cc2)C1 [1d] | 0.3–1.9 |
| CCN1C/C(=C\c2ccc(Cl)cc2)C(=O)/C(=C/c2ccc(Cl)cc2)C1 [1e] | 0.09–0.4 |
| CCN1C/C(=C\c2ccc(C(F)(F)F)cc2)C(=O)/C(=C/c2ccc(C(F)(F)F)cc2)C1 [1f] | 0.07–0.3 |
| CCCCOc1ccc(/C=C2\CN(CC)C/C(=C\c3ccc(OCCCC)cc3OCCCC)C2=O)c(OCCCC)c1 [2h, 3,5-bis((E)-2,4-dibutoxybenzylidene) -1-ethylpiperidin-4-one] | 4.5–22.3 |
| CCN1C/C(=C\c2ccc3c(c2)OCO3)C(=O)/C(=C/c2ccc3c(c2)OCO3)C1 [2i] | 0.5–1.0 |
| CCN1C/C(=C\c2ccccc2F)C(=O)/C(=C/c2ccccc2F)C1 [2j] | 0.1–0.7 |
| CCN1C/C(=C\c2cnc3ccccc3c2)C(=O)/C(=C/c2cnc3ccccc3c2)C1 [2l] | 0.1–0.3 |
| CCCCOc1ccc(/C=C2\CN(Cc3ccccc3)C/C(=C\c3ccc(OCCCC)cc3OCCCC)C2=O)c(OCCCC)c1 [3h] | 5.4 to 80.5 and 5.4–80.5 |
| O=C1/C(=C/c2ccc[nH]2)CN(Cc2ccccc2)C/C1=C\c1ccc[nH]1 [3j] | 0.4–1.3 |
| CCCCOc1ccc(/C=C2\CN(C3CC3)C/C(=C\c3ccc(OCCCC)cc3OCCCC)C2=O)c(OCCCC)c1 [4h] | > 4 |

Several values for one entry are separate records, joined by “and”; a condition that tells them apart may be missing. Equal entries are not always repeated.
